Article doi:10.1101/2022.11.16.516846

What was measured:
[1] = molecular target: T1, FAM21 (endogenous, Kc cell nuclear lysate) (Drosophila (endogenous in Kc cells)) (UniProt A1ZBW7); assay: native gel or EMSA
T1 sequence: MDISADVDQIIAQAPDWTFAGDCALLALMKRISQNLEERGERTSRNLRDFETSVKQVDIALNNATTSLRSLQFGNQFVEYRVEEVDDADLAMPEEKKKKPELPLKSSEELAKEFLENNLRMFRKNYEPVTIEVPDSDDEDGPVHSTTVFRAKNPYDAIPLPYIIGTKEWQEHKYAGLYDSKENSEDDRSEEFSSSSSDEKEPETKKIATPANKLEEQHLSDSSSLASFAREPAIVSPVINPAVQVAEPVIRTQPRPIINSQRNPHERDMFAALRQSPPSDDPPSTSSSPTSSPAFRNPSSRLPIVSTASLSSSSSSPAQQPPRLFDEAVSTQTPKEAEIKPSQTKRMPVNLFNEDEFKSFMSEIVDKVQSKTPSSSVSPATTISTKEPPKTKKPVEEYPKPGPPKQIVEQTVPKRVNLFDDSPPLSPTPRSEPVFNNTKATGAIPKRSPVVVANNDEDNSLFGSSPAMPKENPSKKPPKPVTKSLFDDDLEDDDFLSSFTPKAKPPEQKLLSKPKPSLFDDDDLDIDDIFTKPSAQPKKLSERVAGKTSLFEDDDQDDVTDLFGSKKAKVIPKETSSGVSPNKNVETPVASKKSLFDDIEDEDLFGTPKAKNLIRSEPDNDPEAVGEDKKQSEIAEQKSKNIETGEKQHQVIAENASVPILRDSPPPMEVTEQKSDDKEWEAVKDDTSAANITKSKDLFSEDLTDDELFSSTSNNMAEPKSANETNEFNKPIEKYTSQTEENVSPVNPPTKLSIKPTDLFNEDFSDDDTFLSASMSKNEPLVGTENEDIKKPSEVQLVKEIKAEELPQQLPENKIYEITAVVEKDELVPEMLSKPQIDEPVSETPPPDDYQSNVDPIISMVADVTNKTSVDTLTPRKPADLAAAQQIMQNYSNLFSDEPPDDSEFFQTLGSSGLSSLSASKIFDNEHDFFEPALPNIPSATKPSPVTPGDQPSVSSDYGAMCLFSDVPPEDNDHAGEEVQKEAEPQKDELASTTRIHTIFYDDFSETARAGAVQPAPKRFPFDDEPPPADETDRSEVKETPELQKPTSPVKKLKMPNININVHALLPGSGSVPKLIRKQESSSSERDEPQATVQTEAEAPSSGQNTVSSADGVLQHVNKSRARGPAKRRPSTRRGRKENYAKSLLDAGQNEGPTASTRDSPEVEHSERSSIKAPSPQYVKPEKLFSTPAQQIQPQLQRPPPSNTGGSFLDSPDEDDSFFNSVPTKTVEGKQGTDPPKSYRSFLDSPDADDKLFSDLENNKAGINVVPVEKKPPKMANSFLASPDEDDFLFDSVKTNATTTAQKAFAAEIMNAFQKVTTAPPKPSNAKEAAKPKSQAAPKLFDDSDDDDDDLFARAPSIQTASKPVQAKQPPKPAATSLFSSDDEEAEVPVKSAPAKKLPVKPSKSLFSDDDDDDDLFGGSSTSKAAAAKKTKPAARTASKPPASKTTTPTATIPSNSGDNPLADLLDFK

[2] = molecular target: T1, FAM21 (endogenous, Kc cell nuclear lysate) (Drosophila (endogenous in Kc cells)); assay: co-IP
[3] = molecular target: T2, CCDC53 (endogenous, Kc cell nuclear lysate) (Drosophila (endogenous in Kc cells)) (UniProt Q9VLT8); assay: co-IP
T2 sequence: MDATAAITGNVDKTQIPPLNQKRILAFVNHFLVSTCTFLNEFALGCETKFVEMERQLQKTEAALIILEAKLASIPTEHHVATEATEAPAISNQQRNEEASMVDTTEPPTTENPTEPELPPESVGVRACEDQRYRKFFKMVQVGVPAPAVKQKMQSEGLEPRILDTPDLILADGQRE

Measured: binding

Pavarotti (endogenous)
no binding: all assays above

No constants are given. Whether binding was seen depends on the method and setting. For part of these data: In cells and extracts the contact can be indirect.
